In the experiment the target is Caspase-8 (endogenous) (human (endogenous in HeLa and SiHa)) (UniProt Q14790). Nature of the experiment: affinity purification with mass spectrometry; Caspase-8 immunoprecipitated from non-synchronized and S/G2-phase synchronized HeLa WT cells; co-IP run on a 12% SDS-PAGE gel, LC-MS; negative controls were the IP from HeLa KO cells and IgG.

Chains of the proteins cited; added tags and fusions are not shown.
UniProt Q14790: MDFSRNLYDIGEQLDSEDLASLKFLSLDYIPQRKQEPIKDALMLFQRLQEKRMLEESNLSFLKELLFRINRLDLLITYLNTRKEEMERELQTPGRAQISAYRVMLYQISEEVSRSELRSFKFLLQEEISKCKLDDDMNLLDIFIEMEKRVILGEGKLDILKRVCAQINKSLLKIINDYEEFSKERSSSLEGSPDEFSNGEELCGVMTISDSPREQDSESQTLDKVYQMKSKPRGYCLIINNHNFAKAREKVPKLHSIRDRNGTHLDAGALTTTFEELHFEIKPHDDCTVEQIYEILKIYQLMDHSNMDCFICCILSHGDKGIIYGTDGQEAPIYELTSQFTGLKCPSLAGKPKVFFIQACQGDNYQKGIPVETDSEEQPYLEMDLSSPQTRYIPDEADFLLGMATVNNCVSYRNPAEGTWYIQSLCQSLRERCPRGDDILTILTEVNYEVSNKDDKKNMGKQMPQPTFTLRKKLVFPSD
UniProt P50750: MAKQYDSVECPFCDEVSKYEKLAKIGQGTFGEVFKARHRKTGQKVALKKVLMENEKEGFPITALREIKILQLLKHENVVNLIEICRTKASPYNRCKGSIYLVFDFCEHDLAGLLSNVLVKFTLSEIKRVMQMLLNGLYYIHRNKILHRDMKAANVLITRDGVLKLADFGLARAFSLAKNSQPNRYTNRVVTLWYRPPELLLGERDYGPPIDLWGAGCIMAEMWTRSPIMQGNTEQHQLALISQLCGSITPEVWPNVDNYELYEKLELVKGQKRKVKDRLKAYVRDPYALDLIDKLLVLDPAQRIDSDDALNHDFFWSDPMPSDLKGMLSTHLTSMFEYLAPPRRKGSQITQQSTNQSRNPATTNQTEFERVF

These are yes or no findings as the source states them, for the method shown. In cells and extracts the contact can be indirect. Here binding means that the protein was enriched with, or labelled near, the bait; the list need not be complete.

This is an account of results in publication PMC9674771.

On to “CDK9 (endogenous) (from UniProt P50750 1-372)”, for which the binding entry is “binds”.
